The supplement of paper PMC9233669
This sample is rich in variants without activity.

What was measured:
biotinyl-Leu-oxazolone = assay: self-aminoacylation, catalytic enhancement (BLO) (fold over background); higher = more active; k-Seq, kA / k0A0; sequences stand for … in GGGAAUGGAUCCACAUCUACGAAUUC…UUCACUGCAGACUUGACGAAGCUG
In short: (§1)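 Mutagenized RNA pools with a 21-nt variable region (0.43 μM) were reacted with each biotinyl-aminoacyl-oxazolone at 2–1250 μM for 90 minutes at room temperature, in 50 μL HEPES/NaCl/KCl/MgCl2/CaCl2 buffer containing 5% acetonitrile at pH 6.9–7.0. RNA captured on streptavidin was quantified by triplicate qPCR and by Illumina sequencing. The fraction reacted for each sequence was fit to a pseudo-first-order model with bootstrapping, and catalytic enhancement is the median kA divided by the uncatalyzed rate, taken as the low-activity peak of a bimodal Gaussian fit.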

biotinyl-Met-oxazolone = assay: self-aminoacylation, catalytic enhancement (BMO) (fold over background); higher = more active; k-Seq, kA / k0A0; sequences stand for … in GGGAAUGGAUCCACAUCUACGAAUUC…UUCACUGCAGACUUGACGAAGCUG
In short: as §1

biotinyl-Val-oxazolone = assay: self-aminoacylation, catalytic enhancement (BVO) (fold over background); higher = more active; k-Seq, kA / k0A0; sequences stand for … in GGGAAUGGAUCCACAUCUACGAAUUC…UUCACUGCAGACUUGACGAAGCUG
In short: as §1

biotinyl-Trp-oxazolone = assay: self-aminoacylation, catalytic enhancement (BWO) (fold over background); higher = more active; k-Seq, kA / k0A0; sequences stand for … in GGGAAUGGAUCCACAUCUACGAAUUC…UUCACUGCAGACUUGACGAAGCUG
In short: as §1

biotinyl-Ile-oxazolone = assay: self-aminoacylation, catalytic enhancement (BIO) (fold over background); higher = more active; k-Seq, kA / k0A0; sequences stand for … in GGGAAUGGAUCCACAUCUACGAAUUC…UUCACUGCAGACUUGACGAAGCUG
In short: as §1

biotinyl-Phe-oxazolone = assay: self-aminoacylation, catalytic enhancement (BFO) (fold over background); higher = more active; k-Seq, kA / k0A0; sequences stand for … in GGGAAUGGAUCCACAUCUACGAAUUC…UUCACUGCAGACUUGACGAAGCUG
In short: as §1

Row | Sequence | self-aminoacylation (biotinyl-Leu-oxazolone) | self-aminoacylation (biotinyl-Met-oxazolone) | self-aminoacylation (biotinyl-Val-oxazolone) | self-aminoacylation (biotinyl-Trp-oxazolone) | self-aminoacylation (biotinyl-Ile-oxazolone) | self-aminoacylation (biotinyl-Phe-oxazolone)
1 | CUAUUUCAAACAAUCGCUCUG [Fam1A.1 aminoacylation ribozyme variant] | 0.609 | 0.638 | 0.733 | 0.592 | 0.726 | 0.863
2 | CUCCUUCAAACAAACGGUCUG [Fam1A.1 aminoacylation ribozyme variant] | 0.599 | 0.666 | 0.706 | 1.26 | 0.778 | 0.716
3 | CUCCUUCAAACAACCGGUCUG [Fam1A.1 aminoacylation ribozyme variant] | 0.817 | 0.864 | 0.859 | 1.48 | 1.05 | 1.19
4 | CUGCUUCAAACAAUCGGUCUU [Fam1A.1 aminoacylation ribozyme variant] | 2.97 | 1.91 | 1.72 | 52 | 1.84 | 107
5 | CUGCUUCAAACACUCGGUCUG [Fam1A.1 aminoacylation ribozyme variant] | 1.01 | 1.1 | 1.12 | 0.676 | 0.917 | 0.451
6 | CUGCUUCAAACAGUCGGUCUG [Fam1A.1 aminoacylation ribozyme variant] | 0.951 | 0.764 | 0.837 | 0.692 | 0.804 | 0.936
7 | CUGUUUGCUAAUAGUCGCAAG [Fam3.1 aminoacylation ribozyme variant] | 0.862 | 0.852 | 0.849 | 1.37 | 0.821 | 1.71
8 | CUUCACCUAGGUCAUCGGUUG [Fam2.2 aminoacylation ribozyme variant] | 1.47 | 1.11 | 1.52 | 1.3 | 1.27 | 0.801
9 | CUUCACCUAGUUCAUCGGGUG [Fam2.2 aminoacylation ribozyme variant] | 2.87 | 2.54 | 2.27 | 2.53 | 2.15 | 1.99
10 | CUUCUUCAAACCAUCGGUCUG [Fam1A.1 aminoacylation ribozyme variant] | 0.722 | 0.682 | 0.775 | 0.509 | 0.856 | 0.739
11 | GAGUUUGCUAAUAGUCGCGAG [Fam3.1 aminoacylation ribozyme variant] | 1.47 | 1.63 | 1.38 | 2.17 | 1.55 | 1.76
12 | GAGUUUGCUAAUAGUCGCUAG [Fam3.1 aminoacylation ribozyme variant] | 1.06 | 1.14 | 0.925 | 0.769 | 1.11 | 1.22
13 | GCACACUUCAAGCAAUAGGUC [Fam1B.1 aminoacylation ribozyme variant] | 0.748 | 0.857 | 0.984 | 1.25 | 1 | 1.87
14 | GUACUUCAAACAAUGGGUCUG [Fam1A.1 aminoacylation ribozyme variant] | 1.24 | 1.19 | 1.11 | 1.56 | 1.44 | 1.15
15 | GUUCACCUAGGUCAUCGGGUU [Fam2.2 aminoacylation ribozyme variant] | 17.9 | 13.5 | 6.82 | 9.2 | 7.61 | 51.7
16 | UAGUUUGCUAAUACUCGCAAG [Fam3.1 aminoacylation ribozyme variant] | 0.871 | 0.648 | 0.794 | 1.11 | 0.915 | 1.28
17 | UAGUUUGCUAAUAGUCGCAAA [Fam3.1 aminoacylation ribozyme variant] | 1.53 | 1.75 | 1.38 | 2.06 | 1.95 | 1.58
18 | UCACACUUCAAGCAAUUGGUC [Fam1B.1 aminoacylation ribozyme variant] | 0.734 | 0.597 | 0.788 | 0.841 | 0.682 | 1.32
19 | UUACUUCAAACAAACGGUCUG [Fam1A.1 aminoacylation ribozyme variant] | 1.23 | 1.26 | 1.15 | 1.38 | 1.27 | 1.17
20 | UUUACCCUGGUCAUCGACUGA [Fam2.1 aminoacylation ribozyme variant] | 0.723 | 0.746 | 0.837 | 0.787 | 0.92 | 0.354
21 | UUUCACCUAGGUCAUCGGUUG [Fam2.2 aminoacylation ribozyme variant] | 0.936 | 1.21 | 1.24 | 0.998 | 1.22 | 1.47
22 | UUUGCCCUGGUCAUCGAGUGA [Fam2.1 aminoacylation ribozyme variant] | 41 | 45.5 | 18.1 | 46.1 | 16.5 | 294
